# Article PMC12752627, “Discovery of a Potent and Selective TEAD Degrader with Durable Degradation Activity” (Advanced Science, 2025)
# This continues a long series; more values of the same kind are listed elsewhere.
# Test system: 867 cancer cell lines
# Test: PRISM assay (barcoded cell line screening, 5 days);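 also: top test concentration 10 mM in eight-point dilution series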
# Assay type: cell-based
# Set-up: scale not given here
# Procedure: The principle of the PRISM assay has been described elsewhere and was conducted as previously outlined by the PRISM team at the Broad Institute.^[ [14], [31] ^] In PRISM (MTS027) experiments, KG‐FP‐003 was tested across 867 different cancer cell lines. Cells were treated with eight concentration gradients, ranging from 4.6 nM to […], in triplicate dilutions over a period of five days. Each plate was treated with 20 µM bortezomib as a positive control and DMSO as a negative control. Three replicate experiments were performed for each compound. The resulting data were analyzed using GraphPad PRISM 9.5.
smiles,measurement,setting,value
CNC(=O)c1cc2c(c(F)c1-c1c(Cl)c(F)cc3c1C[C@@](CN[C@H]1CC[C@H](C(=O)N4CCC(CC5CCN(C(=O)COc6ccc(N7CCC(=O)NC7=O)c(C)c6)CC5)CC4)CC1)(c1ccccc1)O3)[C@@H](O)[C@@H](C)C2 [KG-FP-003],KG-FP-003-AUC,8MGBA_CENTRAL_NERVOUS_SYSTEM ACH-000137 PR500,0.88
same,KG-FP-003-AUC,22RV1_PROSTATE ACH-000956 PR500,0.99
same,KG-FP-003-AUC,93T449_SOFT_TISSUE ACH-001794 PR300,1.00
same,KG-FP-003-AUC,94T778_SOFT_TISSUE ACH-001795 PR300,0.55
same,KG-FP-003-AUC,95T1000_SOFT_TISSUE ACH-001796 PR300,0.46
same,KG-FP-003-AUC,143B_BONE ACH-001001 PR300,0.99
same,KG-FP-003-AUC,253JBV_URINARY_TRACT ACH-000026 PR500,0.99
same,KG-FP-003-AUC,253J_URINARY_TRACT ACH-000011 PR500,0.88
same,KG-FP-003-AUC,921_UVEA ACH-001441 PR300,0.87
same,KG-FP-003-AUC,1618K_TESTIS ACH-001437 PR300,0.89
same,KG-FP-003-AUC,1777NRPMET_TESTIS ACH-001438 PR300,0.95
same,KG-FP-003-AUC,9505BIK_PANCREAS ACH-001999 PR300,0.85
same,KG-FP-003-AUC,2313287_STOMACH ACH-000948 PR500,0.99
same,KG-FP-003-AUC,A3KAW_HAEMATOPOIETIC_AND_LYMPHOID_TISSUE ACH-000697 PR300,1.00
same,KG-FP-003-AUC,A101D_SKIN ACH-000008 PR500,0.99
same,KG-FP-003-AUC,A172_CENTRAL_NERVOUS_SYSTEM ACH-000558 PR500,0.43
same,KG-FP-003-AUC,A253_SALIVARY_GLAND ACH-000740 PR300,0.61
same,KG-FP-003-AUC,A375_SKIN ACH-000219 PR500,0.93
same,KG-FP-003-AUC,A388_SKIN ACH-001442 PR300,1.00
same,KG-FP-003-AUC,A427_LUNG ACH-000757 PR300,0.71
same,KG-FP-003-AUC,A498_KIDNEY ACH-000555 PR300,1.00
same,KG-FP-003-AUC,A549_LUNG ACH-000681 PR500,0.70
same,KG-FP-003-AUC,A673_BONE ACH-000052 PR300,0.99
same,KG-FP-003-AUC,A704_KIDNEY ACH-000429 PR500,0.99
same,KG-FP-003-AUC,A1207_CENTRAL_NERVOUS_SYSTEM ACH-000283 PR300,0.43
same,KG-FP-003-AUC,A2058_SKIN ACH-000788 PR500,0.93
same,KG-FP-003-AUC,A2780_OVARY ACH-000657 PR500,0.76
same,KG-FP-003-AUC,ABC1_LUNG ACH-000528 PR500,0.81
same,KG-FP-003-AUC,ACCMESO1_PLEURA ACH-000086 PR500,0.82
same,KG-FP-003-AUC,ACHN_KIDNEY ACH-000046 PR500,0.78
same,KG-FP-003-AUC,AGS_STOMACH ACH-000880 PR500,0.56
same,KG-FP-003-AUC,ALLSIL_HAEMATOPOIETIC_AND_LYMPHOID_TISSUE ACH-000105 PR300,0.90
same,KG-FP-003-AUC,AM38_CENTRAL_NERVOUS_SYSTEM ACH-000269 PR300,0.59
same,KG-FP-003-AUC,AMO1_HAEMATOPOIETIC_AND_LYMPHOID_TISSUE ACH-000838 PR300,0.88
same,KG-FP-003-AUC,AN3CA_ENDOMETRIUM ACH-000940 PR500,0.99
same,KG-FP-003-AUC,ANGMCSS_CENTRAL_NERVOUS_SYSTEM ACH-001329 PR300,0.98
same,KG-FP-003-AUC,ASPC1_PANCREAS ACH-000222 PR500,0.76
same,KG-FP-003-AUC,AU565_BREAST ACH-000248 PR300,0.95
same,KG-FP-003-AUC,BC3C_URINARY_TRACT ACH-000593 PR500,1.00
same,KG-FP-003-AUC,BCPAP_THYROID ACH-000456 PR500,0.77
same,KG-FP-003-AUC,BECKER_CENTRAL_NERVOUS_SYSTEM ACH-001016 PR500,0.94
same,KG-FP-003-AUC,BFTC905_URINARY_TRACT ACH-000802 PR500,0.48
same,KG-FP-003-AUC,BFTC909_KIDNEY ACH-000792 PR500,0.91
same,KG-FP-003-AUC,BHT101_THYROID ACH-000191 PR500,0.76
same,KG-FP-003-AUC,BHY_UPPER_AERODIGESTIVE_TRACT ACH-000548 PR300,0.70
same,KG-FP-003-AUC,BICR6_UPPER_AERODIGESTIVE_TRACT ACH-000415 PR500,0.81
same,KG-FP-003-AUC,BICR16_UPPER_AERODIGESTIVE_TRACT ACH-000503 PR500,0.74
same,KG-FP-003-AUC,BICR18_UPPER_AERODIGESTIVE_TRACT ACH-000992 PR300,0.73
same,KG-FP-003-AUC,BICR22_UPPER_AERODIGESTIVE_TRACT ACH-000794 PR300,0.93
same,KG-FP-003-AUC,BICR31_UPPER_AERODIGESTIVE_TRACT ACH-000228 PR500,0.88
same,KG-FP-003-AUC,BICR56_UPPER_AERODIGESTIVE_TRACT ACH-000771 PR500,0.78
same,KG-FP-003-AUC,BICR78_UPPER_AERODIGESTIVE_TRACT ACH-001332 PR300,0.60
same,KG-FP-003-AUC,BL2_HAEMATOPOIETIC_AND_LYMPHOID_TISSUE ACH-001449 PR300,0.71
same,KG-FP-003-AUC,BLUE1_HAEMATOPOIETIC_AND_LYMPHOID_TISSUE ACH-001450 PR300,0.89
same,KG-FP-003-AUC,BOKU_CERVIX ACH-001451 PR300,0.95
same,KG-FP-003-AUC,BT12_SOFT_TISSUE ACH-000160 PR300,0.69
same,KG-FP-003-AUC,BT16_SOFT_TISSUE ACH-001020 PR300,0.99
same,KG-FP-003-AUC,BT474_BREAST ACH-000927 PR500,1.00
same,KG-FP-003-AUC,BT549_BREAST ACH-000288 PR500,0.64
same,KG-FP-003-AUC,BV173_HAEMATOPOIETIC_AND_LYMPHOID_TISSUE ACH-000432 PR300,0.80
same,KG-FP-003-AUC,C4I_CERVIX ACH-001334 PR300,0.97
same,KG-FP-003-AUC,C32_SKIN ACH-000580 PR300,0.73
same,KG-FP-003-AUC,C33A_CERVIX ACH-001333 PR300,0.94
same,KG-FP-003-AUC,C75_LARGE_INTESTINE ACH-001458 PR300,1.00
same,KG-FP-003-AUC,C80_LARGE_INTESTINE ACH-001459 PR300,1.00
same,KG-FP-003-AUC,C8166_HAEMATOPOIETIC_AND_LYMPHOID_TISSUE ACH-000206 PR300,0.84
same,KG-FP-003-AUC,CADOES1_BONE ACH-000210 PR300,1.00
same,KG-FP-003-AUC,CADOES1_BONE ACH-000210 PR500,1.00
same,KG-FP-003-AUC,CAKI1_KIDNEY ACH-000433 PR500,0.54
same,KG-FP-003-AUC,CAL12T_LUNG ACH-000826 PR500,0.55
same,KG-FP-003-AUC,CAL27_UPPER_AERODIGESTIVE_TRACT ACH-000832 PR500,0.89
same,KG-FP-003-AUC,CAL29_URINARY_TRACT ACH-000142 PR500,0.76
same,KG-FP-003-AUC,CAL33_UPPER_AERODIGESTIVE_TRACT ACH-000518 PR300,0.88
same,KG-FP-003-AUC,CAL51_BREAST ACH-000856 PR500,0.53
same,KG-FP-003-AUC,CAL54_KIDNEY ACH-000457 PR500,0.91
same,KG-FP-003-AUC,CAL62_THYROID ACH-000174 PR500,0.51
same,KG-FP-003-AUC,CAL72_BONE ACH-001715 PR300,1.00
same,KG-FP-003-AUC,CAL120_BREAST ACH-000212 PR500,0.63
same,KG-FP-003-AUC,CAL148_BREAST ACH-000902 PR300,0.88
same,KG-FP-003-AUC,CALU1_LUNG ACH-000511 PR500,0.47
same,KG-FP-003-AUC,CALU6_LUNG ACH-000264 PR500,0.99
same,KG-FP-003-AUC,CAMA1_BREAST ACH-000783 PR500,0.99
same,KG-FP-003-AUC,CAOV3_OVARY ACH-000713 PR500,0.53
same,KG-FP-003-AUC,CAPAN2_PANCREAS ACH-000107 PR500,0.65
same,KG-FP-003-AUC,CAS1_CENTRAL_NERVOUS_SYSTEM ACH-000464 PR300,0.85
same,KG-FP-003-AUC,CASKI_CERVIX ACH-001336 PR300,0.79
same,KG-FP-003-AUC,GIMEN_AUTONOMIC_GANGLIA ACH-001344 PR300,0.77
same,KG-FP-003-AUC,GOS3_CENTRAL_NERVOUS_SYSTEM ACH-000027 PR500,0.65
same,KG-FP-003-AUC,GP2D_LARGE_INTESTINE ACH-000982 PR500,0.98
same,KG-FP-003-AUC,GP5D_LARGE_INTESTINE ACH-001345 PR300,1.00
same,KG-FP-003-AUC,GRANTA519_HAEMATOPOIETIC_AND_LYMPHOID_TISSUE ACH-000073 PR300,0.81
same,KG-FP-003-AUC,GSS_STOMACH ACH-000746 PR300,0.88
same,KG-FP-003-AUC,GSU_STOMACH ACH-000485 PR300,0.90
same,KG-FP-003-AUC,H4_CENTRAL_NERVOUS_SYSTEM ACH-000389 PR500,1.00
same,KG-FP-003-AUC,H103_UPPER_AERODIGESTIVE_TRACT ACH-001346 PR300,0.98
